# PubChem BioAssay AID588499 (NMMLSC, 2011)
# About 610 (0.17%) of roughly 360,000 compounds were called active. The inconclusive results got no clear call from the source; some entries with a clear call stand among them for comparison. Cut-off read from the data, not from the text of the source: active = inhibition above about 30%; inconclusive = no clear call, values can overlap the other calls; inactive = below that.
# Test system: Botulinum neurotoxin type A light chain protease (Clostridium botulinum A str. ATCC 3502)
# Assay: blockers of BoNT/A LC substrate cleavage – biochemical, flow cytometry, MLPCN library, primary screen (AID 588499); note: plate controls were buffer without enzyme for full effect and enzyme alone for no effect
# Settings: multiplex microsphere protease substrate cleavage, at 10 µM, stronger effect = higher value
row,SMILES,inhibition
1,COc1ccccc1N1C(=O)C2C3C=CC(CC3)C2C1=O (configuration not stated),inconclusive: -5.6%
2,CCCNC(=O)NC1C(NC(=O)NCCC)N(C)C(=O)N1C (configuration not stated),inactive: -0.2%
3,O=C(CCc1ccccc1)c1ccc2c(c1)OCCCO2,inconclusive: 3.8%
4,O=C(CSc1nnc(-c2ccccn2)n1Cc1ccco1)c1ccc(-c2ccccc2)cc1,inconclusive: -7.4%
5,Cc1cc(-c2nc(-c3ccc(C(C)(C)C)cc3)no2)no1,inconclusive: 5.6%
6,OCCN1C2=NCCCN2c2ccccc21,inconclusive: 2.1%
7,O=C(NC1c2ccccc2-c2ccccc21)N1CCOCC1,inconclusive: 2%
8,Cc1cccc(NC(=O)CNC(=O)CN2C(=O)NC3(CCc4ccccc43)C2=O)c1C (configuration not stated),inconclusive: -2.9%
9,COC(=O)C1=C(C)OC(N)=C(C#N)C1c1ccccc1F (configuration not stated),inactive: -0.2%
10,C=C1C(=O)OCC2C(C(=O)O)=CC3C(C)C(C)=CC123 (configuration not stated),inactive: -0.4%
11,N#CCCCn1c(-c2ccccc2)noc1=O,inconclusive: -2.2%
12,O=C(/C=C/Nc1cccc(C(F)(F)F)c1)C(F)(F)F,inconclusive: 2.4%
13,CCOC(=O)Cn1c(S(=O)(=O)Cc2ccc(F)cc2)nc(-c2ccccc2)c1-c1ccccc1,inconclusive: 0.6%
14,CC1CC(C)(C)N2C(=O)C(=C(C#N)C#N)c3cccc1c32 (configuration not stated),inconclusive: 8.7%
15,Cc1cccc(OC(C)C(=O)Nc2ccc(N3CCCCC3)cc2)c1 (configuration not stated),inconclusive: 2%
16,CCn1nc(C)c([N+](=O)[O-])c1C(=O)NNC(=O)c1ccc(Cl)cc1,inconclusive: 25.2%
17,O=C(N/N=C\c1c(O)ccc2ccccc12)c1ccc(S(=O)(=O)N2CCCCC2)cc1,active: 31.9%
18,CC1(C)CC(NC(=O)C23CCC(C)(/C(=N/O)C2)C3(C)C)CC(C)(C)N1 (configuration not stated),inconclusive: -0.3%
19,CCCN(C)C1CN(Cc2cn(Cc3cc(C)cc(C)c3)nn2)S(=O)(=O)C1 (configuration not stated),inactive: 0.1%
20,Cc1cc(C)c(C(=O)CN2C(=O)NC3(CCCCC3)C2=O)cc1C,inactive: 0.2%
21,COc1ccc(-c2ccc(C3C(C#N)=C(N)Oc4n[nH]c(C)c43)o2)cc1 (configuration not stated),inconclusive: 2.7%
22,O=C(CSc1cccc2cccnc12)N/N=C/c1ccc(O)cc1,inactive: 0.1%
23,COc1ccc(-c2noc(-c3csc([C@@H]4O[C@H](CO)[C@H](O)[C@H](O)[C@H]4O)n3)n2)cc1OC,inactive: -0.4%

# Part of the list above in another layout.
row | SMILES | inhibition
1 | COc1ccccc1N1C(=O)C2C3C=CC(CC3)C2C1=O (configuration not stated) | inconclusive: -5.6%
23 | COc1ccc(-c2noc(-c3csc([C@@H]4O[C@H](CO)[C@H](O)[C@H](O)[C@H]4O)n3)n2)cc1OC | inactive: -0.4%

# Going on with the list.

row,SMILES,inhibition
1,Nc1cc(=O)n(Cc2ccccc2)c(=O)n1-c1ccc(F)cc1,inconclusive: 27.9%
2,O=C(NCc1cccnc1)C1CCC(c2ccc(Cl)cc2)CC1 (configuration not stated),inconclusive: -28.3%
3,N#CCc1ccc(Oc2ncc(C(F)(F)F)cc2Cl)cc1,inactive: 0.1%
4,CCN(CC)c1nc2ccccc2nc1-n1nc(C)cc1C,inconclusive: 0.7%
5,O=C(CSc1nnc(-c2ccncc2)n1C1CCCCC1)Nc1ccccc1,inconclusive: -0.8%
6,CC(=O)c1ccc(NC(=O)CCC(=O)OCC(F)(F)C(F)F)cc1,inconclusive: -0.2%
7,COc1ccccc1-n1c(SCC(=O)N2CCCC2)nnc1-c1ccccc1,inactive: 0.5%
8,Cc1cc(NC(=O)CSc2nnc3ccc(-c4ccc(F)cc4)nn23)no1,inconclusive: -2.5%
9,CCCn1c2c(c(O)c(C(=O)Nc3nccs3)c1=O)CCCC2,inactive: -0.2%
10,CC(C)(C)OC(=O)NCCc1nnc(SCC(N)=O)o1,inconclusive: 0.3%
11,Cc1cc(NC(=O)C2CC(=O)N(c3ccccc3Cl)C2)no1 (configuration not stated),inactive: 1.1%
12,CC1=CC(C)(C)N(C(=O)CSc2nnc(C)s2)c2ccc(C)cc21,inactive: 0%
13,FC(F)(F)c1nc2nncn2c2c1CCCCC2,inactive: -0.5%
14,Cc1[nH]n(-c2ccc([N+](=O)[O-])cc2)c(=O)c1C=NCCN1CCN(C(=O)c2ccc(F)cc2)CC1,inconclusive: 0.3%
15,Cc1nc2cc([N+](=O)[O-])ccc2c(=O)n1-c1cccc(Br)c1,inconclusive: 3.4%
16,Cn1ccnc1SCC(=O)Nc1cc(C(F)(F)F)ccc1N1CCOCC1,inconclusive: -0.2%
17,S=C(N/N=C/c1ccccc1Cl)Nc1cccc(Cl)c1Cl,inconclusive: -23%
18,COc1ccc(C(=O)Nc2cccc(S(=O)(=O)NC3=NCCCCC3)c2)cc1,inconclusive: -1.1%
19,N#Cc1cccc(N=Cc2c(O)ccc3ccccc23)c1,inactive: 0.8%
20,CCOC(=O)c1[nH]c(COC(=O)CCOc2ccccc2OC)c(C(=O)OCC)c1C,inconclusive: -2.2%
21,CN(C)c1nc(Oc2ccc(=O)n(-c3ccccc3)n2)nc(N2CCOCC2)n1,inconclusive: 0.8%
22,CN(C)CCCn1c(-c2ccccc2)nc(=S)c2c1CCCC2,inconclusive: 5.5%
23,CCN(C(=O)CSc1nnc(-c2c[nH]c3ccccc23)n1C1CC1)C1CCS(=O)(=O)C1 (configuration not stated),inactive: 3.9%

row,SMILES,inhibition
1,CC(=O)Nc1ccccc1C(=O)OCC(=O)c1ccc2ccccc2c1,inactive: 0.6%
2,O=C(Oc1ccc2c(c1)OCC2=O)c1ccc(Cl)cc1,inconclusive: 16.1%
3,Cc1nc2c(=O)n(-c3cccc(C(F)(F)F)c3)nc(C)c2s1,inconclusive: 3.5%
4,Cc1ccccc1-n1c(SCC(=O)N2CCOCC2)nc(O)cc1=O,inconclusive: -3.8%
5,c1cc2[nH]snc2c2nc(C3CC3)nc12,inconclusive: 3.6%
6,Cc1ccc(SCC(=O)OCC(=O)N(C)CC(=O)Nc2ccc(F)cc2)cc1,inconclusive: 2.8%
7,CSc1nnc2c(n1)OC1(Nc3ccccc3-2)C(=O)Nc2ccccc21 (configuration not stated),inactive: -0.1%
8,COc1ccc(C(=O)Nc2c(C)cc(C)cc2C)cc1OC,inconclusive: -1.7%
9,OC(C#CCN1CCCCCC1)(c1ccccc1)c1cccnc1 (configuration not stated),inconclusive: -54.4%
10,COc1cccc(C(=O)Nc2ccc(NC(C)=O)cc2)c1,inconclusive: 0.7%
11,CC(=O)c1nnn(-c2ccc(Cl)cc2C#N)c1C,inconclusive: -47.4%
12,COc1ccc(NC(=O)C(c2ccccc2)c2ccccc2)c(OC)c1,inconclusive: 13.1%
13,O=C(CCN1CCCCC1)c1ccccc1,inconclusive: -1.6%
14,Clc1cc2c(nn1)Nc1ccccc1S2,inconclusive: 17.3%
15,COc1ccc(/C=N/NC(=S)Nc2c(C)n(C)n(-c3ccccc3)c2=O)cc1OC,inconclusive: -38.1%
16,COc1ccc(C(=O)N2CCN(Cc3ccccc3[N+](=O)[O-])CC2)cc1,inconclusive: -1.2%
17,O=C(NCC1CCCO1)c1ccc(-c2cccc(C(F)(F)F)c2)o1 (configuration not stated),inactive: 2.8%
18,Cc1noc(C)c1COc1ccccc1C(=O)NNC(=O)c1ccccc1,inconclusive: -5.1%
19,Cc1cc(C)c2nc(SCc3ccc([N+](=O)[O-])cc3)nc(C)c2c1,inconclusive: -0.5%
20,CCOc1nc(-c2ccc(OC)cc2)ccc1-c1noc(C)n1,inconclusive: -3.1%
21,Cc1ccc(NS(=O)(=O)c2ccc(C)c(NC(=O)c3ccc(S(=O)(=O)N4CCCCCC4)cc3)c2)c(C)c1,inactive: 0.1%
22,CCc1ccc(CN(C)C(=O)c2cc(COc3cccc(C(F)(F)F)c3)on2)nc1,inactive: 2.3%
23,COc1ccc(NC(=O)C(NC(=O)OC(C)(C)C)C(C)OCc2ccccc2)cc1 (configuration not stated),inconclusive: -4.1%

# Some values from the list.
# inhibition, Clc1cc2c(nn1)Nc1ccccc1S2 is entered as inconclusive: 17.3%
# inhibition, COc1ccc(/C=N/NC(=S)Nc2c(C)n(C)n(-c3ccccc3)c2=O)cc1OC is entered as inconclusive: -38.1%
# inhibition, O=C(CCN1CCCCC1)c1ccccc1 is entered as inconclusive: -1.6%

# (more compounds)

row,SMILES,inhibition
1,CC1CCN(C(=O)c2ccc(NS(C)(=O)=O)cc2)CC1,inconclusive: 1%
2,Cc1ccc2nc(NCCCNC(=O)c3cnccn3)c(C#N)cc2c1,inconclusive: 1.2%
3,COCCn1c(=S)[nH]c2cc(C(=O)N3CCN(C4CCCCC4)CC3)ccc2c1=O,inactive: 0%
4,Cc1ccc(C(C(=O)NC(C)(C)C)N(CC2CCCO2)C(=O)Cn2nnc(-c3ccc(C)o3)n2)cc1 (configuration not stated),inconclusive: -0.4%
5,OC(c1ccc(F)cc1)c1nc(-c2ccc(Cl)cc2)cs1 (configuration not stated),inactive: -0.2%
6,O=C(Nc1cc2c3c(c1)C1CCCC1CN3CC1CCCC21)c1ccccc1 (configuration not stated),inconclusive: 5.2%
7,CC(C)Oc1ccc(C2c3c(oc4ccccc4c3=O)C(=O)N2CCCN2CCOCC2)cc1 (configuration not stated),inconclusive: -1.2%
8,CC(C)(C)c1ccc(-c2nc(C=O)c3ccccn23)cc1,inconclusive: 25.6%
9,Cc1ccc(NC(=O)Cn2cc(C=O)c3ccccc32)cc1C,inactive: 0.3%
10,O=C(C1CCCO1)N(Cc1ccccc1)c1ccccc1 (configuration not stated),inconclusive: -0.5%
11,CCOC(=O)C(=CNc1ccc2c(c1)c1ccccc1n2CC)C(=O)OCC,inconclusive: -5.8%
12,O=S(=O)(c1ccccc1)N1CCN(c2ncnc3scc(-c4ccccc4)c23)CC1,inconclusive: 1.6%
13,Cc1cc(NCCCN(C)C)n2c(nc3ccccc32)c1C#N,inactive: 0.8%
14,Cc1c(/C=N/n2cnnc2)c2ccccc2n1CCOc1ccc(Cl)cc1,inactive: -0.4%
15,COc1ccc(C(C#N)=Cc2ccc(OC)c(OC)c2)cc1,inactive: -0.3%
16,Cc1cc2n(n1)C(c1sccc1C)Nc1ccccc1-2 (configuration not stated),inconclusive: 1.4%
17,Cc1ccc(NC(=O)Nc2ccc(Cl)cc2)c(Br)c1,inactive: -1.1%
18,COc1ccc(NS(=O)(=O)c2csc(C(=O)N3CCCC3)c2)c(OC)c1,inactive: 0.7%
19,CCCCCCn1c(COc2ccccc2F)nnc1SCC(=O)N1c2ccccc2NC(=O)C1(C)C,inconclusive: 7.5%
20,CCOC(=O)c1sc(=NC(=O)/C=C/c2ccccc2)n(C)c1C,inactive: -0.2%
21,Cc1onc(-c2ccccc2Cl)c1C(=O)NCc1ccc2c(c1)cc(C)n2C,active: 83%
22,C=CCSc1nc2sc3c(c2c(=O)n1-c1ccc(C)cc1)CCN(C)C3,active: 35.8%
23,C=CCn1c(O)c(C(CC)=Nc2ccc(NC(C)=O)cc2)c(=O)[nH]c1=O,inconclusive: -40.3%

# A portion of the results above, for reference:
row,SMILES,inhibition
1,CC1CCN(C(=O)c2ccc(NS(C)(=O)=O)cc2)CC1,inconclusive: 1%
2,Cc1ccc2nc(NCCCNC(=O)c3cnccn3)c(C#N)cc2c1,inconclusive: 1.2%
